Some of the results follow.
How the values were obtained:
Test in all cases: log2 fold change, soluble protein after heating vs DMSO (PISA); higher = thermal stabilisation; K562 cells, 10 uM, 30 min; active = over 0.2 and 3.5 SD of the protein, either way, in both replicates (recomputed)
[1] = compound: CC1=C(C=C(C=C1)NC(=O)C2=CC(=CC=C2)C(C)(C)C#N)NC3=CC4=C(C=C3)N=CN(C4=O)C
Summary of the method: (§1)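 Aliquots of K562 cells (2×10^6 cells/mL) treated with 10 μM compound for 30 min were heated for 3 min over 48°C-58°C. After pooling and extraction in PBS with 0.5% NP-40 at 4°C, soluble protein from a 21,000xg, 90 min spin was quantified by TMTpro 16plex LC-MS/MS with channel sums equalised. Thermal stability is expressed against control samples, from duplicates, as a log2 fold change.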

By UniProt entry, the sequences of proteins in these tests, tags left out. Where a name states a change or a piece, a line headed by the entry shows the natural chain unless it says otherwise.
UniProt Q9H6K1: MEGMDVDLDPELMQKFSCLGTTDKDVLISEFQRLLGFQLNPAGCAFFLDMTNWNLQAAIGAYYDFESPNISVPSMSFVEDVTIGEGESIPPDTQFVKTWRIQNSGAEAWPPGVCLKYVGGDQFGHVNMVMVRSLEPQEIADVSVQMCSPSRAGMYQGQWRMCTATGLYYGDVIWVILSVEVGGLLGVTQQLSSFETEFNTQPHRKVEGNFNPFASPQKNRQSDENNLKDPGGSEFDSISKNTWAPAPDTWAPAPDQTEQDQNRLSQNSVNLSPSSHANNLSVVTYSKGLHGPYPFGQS
UniProt Q9UI26: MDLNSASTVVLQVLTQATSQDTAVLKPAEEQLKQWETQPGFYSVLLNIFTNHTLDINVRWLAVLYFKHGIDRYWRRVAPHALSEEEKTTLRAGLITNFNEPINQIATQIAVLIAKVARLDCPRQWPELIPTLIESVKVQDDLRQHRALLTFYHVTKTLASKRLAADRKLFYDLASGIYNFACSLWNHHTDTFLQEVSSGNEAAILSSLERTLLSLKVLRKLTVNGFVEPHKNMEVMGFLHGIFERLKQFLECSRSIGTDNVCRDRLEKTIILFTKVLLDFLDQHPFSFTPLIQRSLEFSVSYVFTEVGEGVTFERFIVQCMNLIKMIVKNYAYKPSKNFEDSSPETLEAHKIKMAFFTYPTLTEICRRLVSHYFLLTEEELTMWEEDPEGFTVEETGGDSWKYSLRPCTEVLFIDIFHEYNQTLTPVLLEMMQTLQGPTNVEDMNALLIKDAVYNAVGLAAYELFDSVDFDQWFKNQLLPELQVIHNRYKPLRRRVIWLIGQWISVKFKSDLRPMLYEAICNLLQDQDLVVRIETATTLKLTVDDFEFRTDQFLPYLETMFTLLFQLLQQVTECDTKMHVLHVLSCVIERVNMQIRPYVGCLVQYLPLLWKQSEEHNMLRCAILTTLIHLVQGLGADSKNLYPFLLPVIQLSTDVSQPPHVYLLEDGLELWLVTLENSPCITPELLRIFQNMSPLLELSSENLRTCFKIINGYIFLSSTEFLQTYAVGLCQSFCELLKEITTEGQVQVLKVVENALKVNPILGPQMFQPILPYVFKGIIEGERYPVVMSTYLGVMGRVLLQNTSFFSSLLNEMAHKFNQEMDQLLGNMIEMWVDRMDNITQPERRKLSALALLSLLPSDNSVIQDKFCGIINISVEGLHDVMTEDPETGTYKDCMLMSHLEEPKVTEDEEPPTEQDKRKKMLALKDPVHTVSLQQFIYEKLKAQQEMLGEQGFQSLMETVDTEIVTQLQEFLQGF
UniProt Q9Y287, whole entry, looked up: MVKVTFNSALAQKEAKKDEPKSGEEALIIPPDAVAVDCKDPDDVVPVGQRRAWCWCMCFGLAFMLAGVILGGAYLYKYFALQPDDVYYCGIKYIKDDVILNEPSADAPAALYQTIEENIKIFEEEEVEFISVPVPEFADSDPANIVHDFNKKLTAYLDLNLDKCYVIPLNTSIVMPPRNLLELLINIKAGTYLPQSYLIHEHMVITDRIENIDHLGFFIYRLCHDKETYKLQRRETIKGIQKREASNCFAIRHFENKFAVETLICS
UniProt P11717, whole entry, looked up: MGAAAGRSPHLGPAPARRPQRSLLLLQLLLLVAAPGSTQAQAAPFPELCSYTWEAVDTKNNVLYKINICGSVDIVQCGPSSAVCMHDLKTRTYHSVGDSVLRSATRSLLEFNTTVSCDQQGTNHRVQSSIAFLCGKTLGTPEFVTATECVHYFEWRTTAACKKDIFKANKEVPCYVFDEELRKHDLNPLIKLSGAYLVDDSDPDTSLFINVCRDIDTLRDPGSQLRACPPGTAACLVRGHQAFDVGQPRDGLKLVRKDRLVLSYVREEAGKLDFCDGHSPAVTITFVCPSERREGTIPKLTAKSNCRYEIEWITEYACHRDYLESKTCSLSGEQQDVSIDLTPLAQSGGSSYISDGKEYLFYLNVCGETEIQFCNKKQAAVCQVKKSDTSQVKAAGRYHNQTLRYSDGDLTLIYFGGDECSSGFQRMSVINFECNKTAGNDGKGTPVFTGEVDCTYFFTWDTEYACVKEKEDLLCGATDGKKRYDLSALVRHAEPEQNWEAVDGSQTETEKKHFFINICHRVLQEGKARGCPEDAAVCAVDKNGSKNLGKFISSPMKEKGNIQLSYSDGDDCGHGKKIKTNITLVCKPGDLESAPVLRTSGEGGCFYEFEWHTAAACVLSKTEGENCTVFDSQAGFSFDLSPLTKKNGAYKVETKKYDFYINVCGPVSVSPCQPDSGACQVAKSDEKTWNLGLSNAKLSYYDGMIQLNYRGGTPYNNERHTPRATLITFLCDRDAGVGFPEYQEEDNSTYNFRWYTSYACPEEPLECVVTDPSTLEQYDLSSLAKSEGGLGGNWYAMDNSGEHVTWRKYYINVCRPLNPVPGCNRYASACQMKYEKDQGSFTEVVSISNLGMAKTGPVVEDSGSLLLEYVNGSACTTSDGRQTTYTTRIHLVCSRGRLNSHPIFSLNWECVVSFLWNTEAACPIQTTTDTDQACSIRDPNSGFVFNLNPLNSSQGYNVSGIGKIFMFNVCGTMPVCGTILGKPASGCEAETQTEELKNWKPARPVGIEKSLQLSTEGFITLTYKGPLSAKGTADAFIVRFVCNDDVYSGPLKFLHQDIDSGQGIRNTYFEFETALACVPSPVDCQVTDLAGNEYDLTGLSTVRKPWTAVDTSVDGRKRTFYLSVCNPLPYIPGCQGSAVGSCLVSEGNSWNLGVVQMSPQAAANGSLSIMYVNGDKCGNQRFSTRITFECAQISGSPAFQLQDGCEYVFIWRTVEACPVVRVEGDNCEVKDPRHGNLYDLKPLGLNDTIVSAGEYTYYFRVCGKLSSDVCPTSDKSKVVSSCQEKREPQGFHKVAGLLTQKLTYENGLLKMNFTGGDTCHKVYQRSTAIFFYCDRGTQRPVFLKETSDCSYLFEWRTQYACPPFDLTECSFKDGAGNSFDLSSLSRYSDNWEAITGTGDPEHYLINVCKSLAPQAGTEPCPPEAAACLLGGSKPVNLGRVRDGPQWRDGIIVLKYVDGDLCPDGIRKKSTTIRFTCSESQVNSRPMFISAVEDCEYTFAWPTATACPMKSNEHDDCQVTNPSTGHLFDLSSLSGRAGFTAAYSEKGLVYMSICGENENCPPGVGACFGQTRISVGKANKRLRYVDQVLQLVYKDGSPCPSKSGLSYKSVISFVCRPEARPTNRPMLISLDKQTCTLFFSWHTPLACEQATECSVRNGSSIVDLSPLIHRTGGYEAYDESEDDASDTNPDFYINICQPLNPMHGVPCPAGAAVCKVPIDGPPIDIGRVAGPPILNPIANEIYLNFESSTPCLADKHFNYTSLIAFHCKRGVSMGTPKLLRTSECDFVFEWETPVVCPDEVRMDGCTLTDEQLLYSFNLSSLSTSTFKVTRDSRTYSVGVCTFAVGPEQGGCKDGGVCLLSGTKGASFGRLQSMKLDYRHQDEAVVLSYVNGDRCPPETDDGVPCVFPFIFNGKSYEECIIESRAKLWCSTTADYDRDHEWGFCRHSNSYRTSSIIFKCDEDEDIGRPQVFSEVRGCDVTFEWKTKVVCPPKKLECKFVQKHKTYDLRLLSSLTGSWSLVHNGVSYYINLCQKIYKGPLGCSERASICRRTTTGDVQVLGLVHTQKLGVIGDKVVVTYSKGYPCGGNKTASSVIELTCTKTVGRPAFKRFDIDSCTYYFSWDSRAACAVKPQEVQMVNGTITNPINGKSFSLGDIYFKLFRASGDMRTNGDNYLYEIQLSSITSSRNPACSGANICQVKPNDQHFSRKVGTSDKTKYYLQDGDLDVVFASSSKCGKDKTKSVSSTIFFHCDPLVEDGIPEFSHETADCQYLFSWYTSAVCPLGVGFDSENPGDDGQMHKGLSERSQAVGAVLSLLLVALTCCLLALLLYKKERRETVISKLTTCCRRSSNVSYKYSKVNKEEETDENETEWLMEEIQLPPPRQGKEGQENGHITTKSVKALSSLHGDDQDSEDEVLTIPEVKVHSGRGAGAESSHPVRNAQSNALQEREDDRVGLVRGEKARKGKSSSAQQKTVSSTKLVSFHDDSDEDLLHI
UniProt Q14653: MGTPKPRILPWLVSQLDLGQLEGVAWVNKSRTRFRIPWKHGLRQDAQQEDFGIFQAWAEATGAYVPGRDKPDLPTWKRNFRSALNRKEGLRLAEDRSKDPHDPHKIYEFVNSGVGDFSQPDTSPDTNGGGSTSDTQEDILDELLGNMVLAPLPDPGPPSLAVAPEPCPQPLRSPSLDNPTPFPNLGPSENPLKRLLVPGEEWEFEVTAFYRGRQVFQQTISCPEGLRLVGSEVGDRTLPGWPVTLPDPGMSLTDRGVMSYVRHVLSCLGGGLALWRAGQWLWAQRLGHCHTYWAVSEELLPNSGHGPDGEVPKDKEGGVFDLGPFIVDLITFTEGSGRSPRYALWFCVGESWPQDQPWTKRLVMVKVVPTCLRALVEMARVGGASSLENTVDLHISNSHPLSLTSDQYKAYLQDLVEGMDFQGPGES
UniProt Q86VI3: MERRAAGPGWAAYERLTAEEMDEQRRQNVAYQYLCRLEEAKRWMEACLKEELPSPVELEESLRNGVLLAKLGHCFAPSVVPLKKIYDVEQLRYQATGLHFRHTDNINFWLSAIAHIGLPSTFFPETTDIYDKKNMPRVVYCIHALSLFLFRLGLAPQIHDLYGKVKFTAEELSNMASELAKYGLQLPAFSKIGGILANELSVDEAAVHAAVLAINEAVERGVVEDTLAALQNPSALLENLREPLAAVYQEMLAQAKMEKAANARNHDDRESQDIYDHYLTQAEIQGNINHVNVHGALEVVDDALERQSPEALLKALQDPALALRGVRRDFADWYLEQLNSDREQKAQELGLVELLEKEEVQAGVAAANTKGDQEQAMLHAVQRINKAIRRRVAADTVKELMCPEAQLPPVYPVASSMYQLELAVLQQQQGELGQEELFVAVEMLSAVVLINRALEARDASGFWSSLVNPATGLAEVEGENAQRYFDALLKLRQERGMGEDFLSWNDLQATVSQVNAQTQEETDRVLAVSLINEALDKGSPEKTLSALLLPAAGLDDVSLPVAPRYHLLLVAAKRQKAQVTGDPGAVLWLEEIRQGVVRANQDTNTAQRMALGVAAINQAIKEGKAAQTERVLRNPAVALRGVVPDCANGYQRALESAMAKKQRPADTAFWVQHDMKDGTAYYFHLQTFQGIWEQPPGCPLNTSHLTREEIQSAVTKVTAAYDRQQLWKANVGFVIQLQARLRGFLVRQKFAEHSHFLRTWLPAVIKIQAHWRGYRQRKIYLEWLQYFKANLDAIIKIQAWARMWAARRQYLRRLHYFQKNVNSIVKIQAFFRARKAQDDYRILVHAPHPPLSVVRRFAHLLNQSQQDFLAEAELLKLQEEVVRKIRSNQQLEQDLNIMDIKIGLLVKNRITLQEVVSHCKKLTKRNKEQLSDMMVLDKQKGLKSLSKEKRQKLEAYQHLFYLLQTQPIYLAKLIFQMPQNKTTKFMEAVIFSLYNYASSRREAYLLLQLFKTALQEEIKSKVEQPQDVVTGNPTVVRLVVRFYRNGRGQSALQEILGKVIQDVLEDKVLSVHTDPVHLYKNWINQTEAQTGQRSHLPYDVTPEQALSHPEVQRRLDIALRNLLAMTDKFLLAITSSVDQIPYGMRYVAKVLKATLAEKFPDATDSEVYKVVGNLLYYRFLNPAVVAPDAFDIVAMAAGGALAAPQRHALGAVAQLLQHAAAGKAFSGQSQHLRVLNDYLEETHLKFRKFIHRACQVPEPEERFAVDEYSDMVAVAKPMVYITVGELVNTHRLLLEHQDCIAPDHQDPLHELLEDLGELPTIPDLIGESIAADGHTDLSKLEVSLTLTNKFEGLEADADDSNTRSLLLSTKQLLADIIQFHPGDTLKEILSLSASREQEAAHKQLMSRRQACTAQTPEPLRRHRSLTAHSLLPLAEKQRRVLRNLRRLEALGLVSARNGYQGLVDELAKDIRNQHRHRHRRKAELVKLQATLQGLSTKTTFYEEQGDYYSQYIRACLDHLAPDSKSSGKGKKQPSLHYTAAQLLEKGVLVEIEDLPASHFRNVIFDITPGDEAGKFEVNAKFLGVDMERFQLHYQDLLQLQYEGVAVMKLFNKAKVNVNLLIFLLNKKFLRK
UniProt P15260: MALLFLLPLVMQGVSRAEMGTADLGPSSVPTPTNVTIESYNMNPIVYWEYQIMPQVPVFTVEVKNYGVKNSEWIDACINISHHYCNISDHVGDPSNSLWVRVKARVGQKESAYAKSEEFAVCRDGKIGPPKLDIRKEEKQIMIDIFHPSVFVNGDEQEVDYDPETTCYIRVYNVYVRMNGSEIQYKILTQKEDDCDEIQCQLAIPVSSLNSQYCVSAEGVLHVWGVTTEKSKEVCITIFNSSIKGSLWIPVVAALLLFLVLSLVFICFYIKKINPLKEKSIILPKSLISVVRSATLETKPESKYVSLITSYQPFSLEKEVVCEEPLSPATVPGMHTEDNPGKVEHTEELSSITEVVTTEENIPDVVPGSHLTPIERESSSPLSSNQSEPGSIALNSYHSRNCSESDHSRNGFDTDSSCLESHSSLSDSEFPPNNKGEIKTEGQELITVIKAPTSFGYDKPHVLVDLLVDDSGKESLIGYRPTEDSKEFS

[2] = compound: CC1=C(C=C(C=C1)NC(=O)C2=CC(=CC=C2)N(C)C)NC(=O)C3=CC=C(C=C3)O
Summary of the method: as §1

[3] = compound: CC1=CC=C(C=C1)SC2=C3C=C(SC3=CN=C2)C(=O)N
Summary of the method: as §1

[4] = compound: CC1=NC(=CC=C1)C2=C(N=C(N2)C(C)(C)C)C3=CC4=NC=CN=C4C=C3
Summary of the method: as §1

[5] = compound: CCCCN(Cc1ccc(C(=O)NO)cc1)C(=O)Nc1ccccc1 [Nexturastat A]
Summary of the method: as §1

[6] = compound: CCCS(=O)(=O)Nc1ccc(F)c(C(=O)c2c[nH]c3ncc(-c4ccc(Cl)cc4)cc23)c1F [vemurafenib]
Summary of the method: as §1

[7] = compound: CCCS(=O)(=O)Nc1ccc(F)c(C(=O)c2c[nH]c3ncc(Cl)cc23)c1F
Summary of the method: as §1

[8] = compound: CCCc1cc(C)[nH]c(=O)c1CNC(=O)c1cc(-c2ccnc(N3CCN(C)CC3)c2)cc2c1cnn2C(C)C
Summary of the method: as §1

[9] = compound: CCN(CC)Cc1ccc2cc(COC(=O)Nc3ccc(C(=O)NO)cc3)ccc2c1 [givinostat]
Summary of the method: as §1

[10] = compound: CCN(CCCOc1ccc2c(Nc3cc(CC(=O)Nc4cccc(F)c4)[nH]n3)ncnc2c1)CCOP(=O)(O)O [barasertib]
Summary of the method: as §1

[11] = compound: CC[C@@H]1C(=O)N(C)c2cnc(Nc3ccc(C(=O)NC4CCN(C)CC4)cc3OC)nc2N1C1CCCC1
Summary of the method: as §1

[12] = compound: CC[C@@H]1C(=O)N(C)c2cnc(Nc3ccc(C(=O)N[C@H]4CC[C@H](N5CCN(CC6CC6)CC5)CC4)cc3OC)nc2N1C(C)C [volasertib]
Summary of the method: as §1

[13] = compound: CC[C@H](C)N1C=C(C2=C(C=C(C=C21)C3=CN=C(C=C3)N4CCNCC4)C(=O)NCC5=C(C=C(NC5=O)C)C)C
Summary of the method: as §1

[14] = compound: CC[C@H](C)[C@@H](C(=O)N[C@@H]([C@@H](C)O)C(=O)N[C@@H](CC(C)C)C(=O)[C@]1(CO1)C)NC(=O)[C@H]([C@@H](C)CC)N(C)C(=O)C [epoxomicin]
Summary of the method: as §1

[15] = compound: CCn1cc(-c2ccnc3[nH]c(-c4cccc(CN(C)C)c4)cc23)c(-c2ccc(NC(=O)N(C)C)cc2)n1
Summary of the method: as §1

[16] = compound: CN(C)CC(=O)Nc1ccc2[nH]c(=O)c3ccccc3c2c1
Summary of the method: as §1

[17] = compound: CN1C2=C(C3=C1C(=O)N(N=C3)CC4=CC(=CC=C4)N)SC(=C2)S(=O)C
Summary of the method: as §1

[18] = compound: CN1CCC(CNc2ccc3ncc(-c4cccc(OC(F)(F)F)c4)n3n2)CC1
Summary of the method: as §1

[19] = compound: CCn1c(C(=O)N(C2CC2)C2CC2)cc2c3c(ncn3C)c(Nc3cc(C)n(C)n3)nc21
Summary of the method: as §1

Measured: log2 fold change

IGFBP4 (UniProt P22692)
inactive: [1] 0.044 | [2] 0.207 | [3] 0.026 | [4] 0.003 | [5] 0.019 | [6] 0.084 | [7] -0.08 | [8] -0.193 | [9] -0.007 | [10] 0.013 | [11] -0.22 | [12] -0.07 | [13] -0.092 | [14] -0.187 | [15] 0.173 | [16] -0.049 | [17] 0.023 | [18] -0.033

ILRUN (UniProt Q9H6K1)
active: [12] -0.429
inactive: [1] 0.06 | [2] -0.02 | [3] 0.088 | [4] 0.005 | [5] 0.072 | [6] 0.059 | [7] 0.135 | [8] -0.026 | [9] -0.051 | [10] -0.044 | [11] -0.079 | [13] 0.024 | [14] 0.042 | [16] 0.016 | [17] -0.09

IPO11 isoform 2 (UniProt Q9UI26)
active: [12] -0.3
inactive: [1] 0.028 | [2] 0.004 | [3] 0.024 | [4] 0.047 | [5] -0.002 | [6] 0.052 | [7] 0.082 | [8] -0.031 | [9] -0.031 | [10] 0.014 | [11] -0.104 | [13] -0.004 | [14] 0.066 | [15] -0.068 | [16] 0.028 | [17] -0.082 | [18] -0.016

IRF2BPL (UniProt Q9H1B7)
inactive: [1] 0.013 | [2] -0.006 | [3] 0.015 | [4] 0.068 | [5] 0.038 | [6] 0.014 | [7] 0.049 | [8] 0.008 | [9] 0.05 | [10] -0.044 | [11] 0.01 | [12] -0.043 | [13] -0.012 | [14] 0.108 | [15] -0.023 | [16] 0.036 | [17] -0.068 | [18] -0.018

ITM2B (UniProt Q9Y287)
inactive: [1] 0.01 | [2] -0.052 | [3] 0.036 | [4] -0.046 | [5] -0.05 | [6] -0.101 | [7] -0.016 | [8] -0.482 | [9] 0.001 | [10] 0.076 | [11] -0.022 | [12] 0.182 | [13] -0.112 | [14] 0.028 | [16] -0.036 | [17] -0.197

IGF2R (UniProt P11717)
inactive: [1] -0.039 | [2] -0.016 | [3] 0.037 | [4] -0.004 | [5] 0.014 | [6] -0.022 | [7] -0.007 | [8] -0.036 | [9] -0.018 | [10] 0.002 | [13] -0.033 | [14] 0.002 | [15] -0.013 | [16] -0.023 | [17] -0.013
active: [11] -1.09 | [12] -0.875 | [18] -0.607

IRF3 (UniProt Q14653)
inactive: [1] 0.18 | [2] -0.081 | [3] 0.011 | [4] 0.077 | [5] -0.046 | [6] 0.074 | [7] 0.098 | [8] 0.011 | [9] 0.031 | [10] -0.015 | [11] -0.05 | [12] -0.1 | [13] -0.052 | [14] -0.035 | [15] -0.037 | [16] 0.018 | [17] -0.024 | [18] -0.045

IFT20 isoform 2 (UniProt Q8IY31)
inactive: [1] -0.087 | [2] 0.064 | [8] -0.016 | [9] 0.058 | [11] -0.161 | [13] 0.115 | [19] 0.171

IQGAP3 (UniProt Q86VI3)
inactive: [2] 0.034

INPP5K (UniProt Q9BT40)
inactive: [1] -0.005 | [2] 0.028 | [4] -0.063 | [5] -0.156 | [6] -0.014 | [8] 0.066 | [9] 0.059 | [11] -0.214 | [13] -0.012 | [14] -0.206 | [19] -0.059 | [15] -0.083 | [16] 0.059 | [17] 0.217 | [18] -0.429

IFNGR1 (UniProt P15260)
inactive: [1] -0.246 | [2] 0.048 | [3] -0.056 | [6] -0.124 | [7] -0.181 | [8] -0.174 | [9] 0.281 | [10] 0.028 | [11] 0.065 | [12] 0.15 | [13] -0.382 | [14] 0.021 | [15] 0.1 | [16] -0.087 | [17] 0.032 | [18] 0.127
active: [5] 0.743

From the supplement of paper PMC10849652
